Values from PubChem BioAssay AID602196 (INSERM, 2012)

Screen: 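Modifiers of cisplatin sensitivity in A549 cells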
Cell system: human A549 lung cancer cells
Reagent: siRNA pair against human genes
Duration: 48 h transfection before cisplatin; time from cisplatin to read-out not stated
Conditions: cisplatin at a dose killing half of control-siRNA cells; exact dose and duration not given
Measurement: 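Cisplatin cell death as a shift from the 50% death seen with control siRNA; siRNAs toxic or growth-blocking alone scored 0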
Reading the numbers: two-siRNA summed score (-2 to +2): higher = both siRNAs protect from cisplatin killing; -2 means both sensitise; mean protection from cisplatin (shift in death) and protection from cisplatin (shift in death), siRNA C and protection from cisplatin (shift in death), siRNA D: higher = protection from cisplatin killing
Rule for the call: 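Each siRNA scores 0 if harmful alone by LDH or WST-1, otherwise +1 if it reduces and -1 if it increases cisplatin killing; a gene is active when both siRNAs agree (sum +2 or -2)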
Meaning of the calls: active = both siRNAs shift cisplatin killing the same way; inactive = no consistent shift, or siRNA harmful alone
Shown is one part, drawn at random, of about 23,000 reagents tested. 455 of them (2%) were called active. 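Active includes both protection and sensitisation; some change values fall well beyond the stated -50 to +50 range.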 The record does not give: the amount of reagent.

Target gene	PubChem SID	two-siRNA summed score (-2 to +2)	mean protection from cisplatin (shift in death) (%)	protection from cisplatin (shift in death), siRNA C (%)	protection from cisplatin (shift in death), siRNA D (%)	Call
LOC151273	SID131508770	0	1.4	4.3	-1.4	inactive
ROR1 (ROR family WNT receptor 1)	SID131522755	1	23	33.8	12.3	inactive
SOS2 (SOS Ras/Rho guanine nucleotide exchange factor 2)	SID131509287	0	2	-4.9	8.9	inactive
WASHC5 (WASH complex subunit 5)	SID131508860	0	1.6	-2.7	5.9	inactive
CLDN10 (claudin 10)	SID131517970	0	15.7	18.9	12.5	inactive
ECT2 (epithelial cell transforming 2)	SID131511569	0	4.5	-4.4	13.4	inactive
LOC400472	SID131509340	0	2	6.2	-2.1	inactive
FAM151AP1 (FAM151A pseudogene 1)	SID131503889	0	-7.3	-13.1	-1.4	inactive
CDC42SE2 (CDC42 small effector 2)	SID131514624	0	8	13.2	2.9	inactive
PDRG1 (p53 and DNA damage regulated 1)	SID131510278	0	3.1	0.2	5.9	inactive
OIP5 (Opa interacting protein 5)	SID131516944	0	12	16.9	7.2	inactive
PLA2G4A (phospholipase A2 group IVA)	SID131520467	1	10	20.2	-0.2	inactive
CNOT8 (CCR4-NOT transcription complex subunit 8)	SID131502536	-1	-1.2	12.2	-14.7	inactive
TNFRSF21 (TNF receptor superfamily member 21)	SID131505916	0	-2.3	-12	7.3	inactive
KRR1 (KRR1 small subunit processome component)	SID131517798	0	14.9	31.4	-1.7	inactive
OSTN (osteocrin)	SID131500347	-2	-20	-15.1	-24.8	active
WARS2 (tryptophanyl tRNA synthetase 2, mitochondrial)	SID131501483	-1	-9.5	-5.1	-13.9	inactive
LOC440804	SID131507995	0	0.5	2.7	-1.7	inactive

Reprinted from the listing for reference:
Target gene	PubChem SID	two-siRNA summed score (-2 to +2)	mean protection from cisplatin (shift in death) (%)	protection from cisplatin (shift in death), siRNA C (%)	protection from cisplatin (shift in death), siRNA D (%)	Call
CNOT8 (CCR4-NOT transcription complex subunit 8)	SID131502536	-1	-1.2	12.2	-14.7	inactive
TNFRSF21 (TNF receptor superfamily member 21)	SID131505916	0	-2.3	-12	7.3	inactive
KRR1 (KRR1 small subunit processome component)	SID131517798	0	14.9	31.4	-1.7	inactive
OSTN (osteocrin)	SID131500347	-2	-20	-15.1	-24.8	active

The listing continues:
Target gene	PubChem SID	two-siRNA summed score (-2 to +2)	mean protection from cisplatin (shift in death) (%)	protection from cisplatin (shift in death), siRNA C (%)	protection from cisplatin (shift in death), siRNA D (%)	Call
PRDM2 (PR/SET domain 2)	SID131516244	0	10.5	5.5	15.5	inactive
AMOTL1 (angiomotin like 1)	SID131505885	0	-2.4	-13.1	8.3	inactive
BCL11B (BCL11 transcription factor B)	SID131505654	0	-2.8	-6.9	1.4	inactive
GNS (glucosamine (N-acetyl)-6-sulfatase)	SID131503364	0	-10.6	-10.8	-10.3	inactive
CRYBA4 (crystallin beta A4)	SID131501533	-1	-9.1	-22	3.7	inactive
NR2E3 (nuclear receptor subfamily 2 group E member 3)	SID131504582	0	-5	-5.1	-4.9	inactive
LOC440455	SID131513757	0	7	9.5	4.4	inactive
LOC441379	SID131508761	0	1.4	8.3	-5.5	inactive
FRMPD4 (FERM and PDZ domain containing 4)	SID131517094	0	12.4	15.2	9.6	inactive
LARS2 (leucyl-tRNA synthetase 2, mitochondrial)	SID131500578	-1	-20.9	-19.6	-22.1	inactive
AATBC (apoptosis associated transcript in bladder cancer)	SID131506096	0	-2	-20.3	16.2	inactive
UGT2B10 (UDP glucuronosyltransferase family 2 member B10)	SID131519084	1	2.1	-2.1	6.3	inactive
SMDT1 (single-pass membrane protein with aspartate rich tail 1)	SID131516473	0	10.9	8.1	13.8	inactive
HSPC047	SID131513718	0	6.9	1.5	12.4	inactive
HSFY2 (heat shock transcription factor Y-linked 2)	SID131523009	2	16.7	17.4	15.9	active
LOC442020	SID131522268	1	17.3	26.6	8	inactive
SLC61A1	SID131504343	0	-5.7	-2.8	-8.5	inactive
SYTL4 (synaptotagmin like 4)	SID131504706	0	-4.7	6.5	-16	inactive
SIGLEC7 (sialic acid binding Ig like lectin 7)	SID131500483	-1	-25.8	-13.3	-38.2	inactive
MEX3D (mex-3 RNA binding family member D)	SID131522546	1	19.8	14.4	25.2	inactive
ERMP1 (endoplasmic reticulum metallopeptidase 1)	SID131503282	0	-11.4	-16	-6.8	inactive
